From patent US10456465B2, “Compositions, kits, and methods for the diagnosis prognosis, monitoring, treatment and modulation of post-transplant lymphoproliferative disorders and hypoxia associated angiogenesis disorders using galectin-1” (Dana-Farber Cancer Institute, Inc., priority 2009, dated 2019) come the findings set out here.

Some compounds share one wording; it may come from a single statement.

The subject of the data set is human Gal1 (hGal1). Briefly: Epitope mapping with GST-tagged human Gal1 fragments. It counts as binding. To be noted: for Domain recognition: relative to carbohydrate-binding domain (CBD); for Mapping: GST-tagged hGal1 fragments recognized.

B1: 8B5: Gal1 monoclonal antibody; same heavy and lambda light chain sequence as 8F4 and 8G3 (antibody, V domains shown)
VH: EVQLQQSVAEFVRPGASVRLSCTASGFNIKNTYIHWVRQRPEQGLEWIGKIDPANGNTKYVPEFQGKATMTADTSSNTVYLHLSSLTSEDTAIYYCVDGYYGWYFAVWGTGTTVTVSS
VL: QAVVTQESALTTSPGETVTLTCRSSTGAVTTSNYANWVQEKPDHLFTGLIGATNNRAPGVPARFSGSLIGDKAVLTITGAQTEDEAIYFCALWYRNHFIFGSGTKVTVL
In the case of B1, the Domain recognition entry was “distal to the previously described carbohydrate-binding domain”.

B2: 8F4F8G7: neutralizing murine anti-human Gal1 monoclonal antibody; hybridoma deposited under PTA-10535 (antibody, V domains shown)
VH: EVQLQQSVAEFVRPGASVRLSCTASGFNIKNTYIHWVRQRPEQGLEWIGKIDPANGNTKYVPEFQGKATMTADTSSNTVYLHLSSLTSEDTAIYYCVDGYYGWYFAVWGTGTTVTVSS
VL: QAVVTQESALTTSPGETVTLTCRSSTGAVTTSNYANWVQEKPDHLFTGLIGATNNRAPGVPARFSGSLIGDKAVLTITGAQTEDEAIYFCALWYRNHFIFGSGTKVTVL
Turning to B2, the Mapping result is reported as “GST-F5; GST-F6; GST-F7” and the Domain recognition entry is given as “Post-CBD”.

B3: 8G3: Gal1 monoclonal antibody; same heavy and lambda light chain sequence as 8B5 and 8F4 (antibody, V domains shown)
VH: EVQLQQSVAEFVRPGASVRLSCTASGFNIKNTYIHWVRQRPEQGLEWIGKIDPANGNTKYVPEFQGKATMTADTSSNTVYLHLSSLTSEDTAIYYCVDGYYGWYFAVWGTGTTVTVSS
VL: QAVVTQESALTTSPGETVTLTCRSSTGAVTTSNYANWVQEKPDHLFTGLIGATNNRAPGVPARFSGSLIGDKAVLTITGAQTEDEAIYFCALWYRNHFIFGSGTKVTVL
For B3, the Domain recognition result was “distal to the previously described carbohydrate-binding domain”.

B4: 8F4: Gal1 monoclonal antibody; same heavy and lambda light chain sequence as 8B5 and 8G3 (antibody, V domains shown)
VH: EVQLQQSVAEFVRPGASVRLSCTASGFNIKNTYIHWVRQRPEQGLEWIGKIDPANGNTKYVPEFQGKATMTADTSSNTVYLHLSSLTSEDTAIYYCVDGYYGWYFAVWGTGTTVTVSS
VL: QAVVTQESALTTSPGETVTLTCRSSTGAVTTSNYANWVQEKPDHLFTGLIGATNNRAPGVPARFSGSLIGDKAVLTITGAQTEDEAIYFCALWYRNHFIFGSGTKVTVL
Turning to B4, the Domain recognition result is listed as “distal to the previously described carbohydrate-binding domain”.

B5: 8B5.E6.H9: anti-human Gal1 monoclonal antibody (antibody, V domains shown)
VH: EVQLQQSVAEFVRPGASVRLSCTASGFNIKNTYIHWVRQRPEQGLEWIGKIDPANGNTKYVPEFQGKATMTADTSSNTVYLHLSSLTSEDTAIYYCVDGYYGWYFAVWGTGTTVTVSS
VL: QAVVTQESALTTSPGETVTLTCRSSTGAVTTSNYANWVQEKPDHLFTGLIGATNNRAPGVPARFSGSLIGDKAVLTITGAQTEDEAIYFCALWYRNHFIFGSGTKVTVL
As to B5, the Mapping result is “GST-F5; GST-F6; GST-F7” and the Domain recognition entry is “Post-CBD”.

B6: 8G3.B1.G12: anti-human Gal1 monoclonal antibody (antibody, V domains shown)
VH: EVQLQQSVAEFVRPGASVRLSCTASGFNIKNTYIHWVRQRPEQGLEWIGKIDPANGNTKYVPEFQGKATMTADTSSNTVYLHLSSLTSEDTAIYYCVDGYYGWYFAVWGTGTTVTVSS
VL: QAVVTQESALTTSPGETVTLTCRSSTGAVTTSNYANWVQEKPDHLFTGLIGATNNRAPGVPARFSGSLIGDKAVLTITGAQTEDEAIYFCALWYRNHFIFGSGTKVTVL
With B6, the Mapping entry is “GST-F5; GST-F6; GST-F7” and the Domain recognition result is on record as “Post-CBD”.

B7: 8G3.B1.H8: anti-human Gal1 monoclonal antibody (antibody, V domains shown)
VH: EVQLQQSVAEFVRPGASVRLSCTASGFNIKNTYIHWVRQRPEQGLEWIGKIDPANGNTKYVPEFQGKATMTADTSSNTVYLHLSSLTSEDTAIYYCVDGYYGWYFAVWGTGTTVTVSS
VL: QAVVTQESALTTSPGETVTLTCRSSTGAVTTSNYANWVQEKPDHLFTGLIGATNNRAPGVPARFSGSLIGDKAVLTITGAQTEDEAIYFCALWYRNHFIFGSGTKVTVL
As to B7, the Mapping entry is “GST-F5; GST-F6; GST-F7” and the Domain recognition entry is reported as “Post-CBD”.

B8: 8B5.E6.2H3: anti-human Gal1 monoclonal antibody (antibody, V domains shown)
VH: EVQLQQSVAEFVRPGASVRLSCTASGFNIKNTYIHWVRQRPEQGLEWIGKIDPANGNTKYVPEFQGKATMTADTSSNTVYLHLSSLTSEDTAIYYCVDGYYGWYFAVWGTGTTVTVSS
VL: QAVVTQESALTTSPGETVTLTCRSSTGAVTTSNYANWVQEKPDHLFTGLIGATNNRAPGVPARFSGSLIGDKAVLTITGAQTEDEAIYFCALWYRNHFIFGSGTKVTVL
With B8, the Mapping entry is “GST-F5; GST-F6; GST-F7” and the Domain recognition result is “Post-CBD”.

B9: 8F4.F8.H2: anti-human Gal1 monoclonal antibody (antibody, V domains shown)
VH: EVQLQQSVAEFVRPGASVRLSCTASGFNIKNTYIHWVRQRPEQGLEWIGKIDPANGNTKYVPEFQGKATMTADTSSNTVYLHLSSLTSEDTAIYYCVDGYYGWYFAVWGTGTTVTVSS
VL: QAVVTQESALTTSPGETVTLTCRSSTGAVTTSNYANWVQEKPDHLFTGLIGATNNRAPGVPARFSGSLIGDKAVLTITGAQTEDEAIYFCALWYRNHFIFGSGTKVTVL
For B9, the Mapping result is listed as “GST-F5; GST-F6; GST-F7” and the Domain recognition result is “Post-CBD”.
